# Experimental data: patent US6346539B1, “Treatment of skin conditions” (BTG International Limited, priority 1998, dated 2002)
# Several values for one entry are separate records, joined by “and”; a condition that tells them apart may be missing. Identical values can stand only once. The name of at least one read-out is uncertain.
# Test system: mouse melan-a cells
# Experiment: Melanocyte proliferant activity of piperine derivatives, SRB assay, 4 days, 10% FBS
# Assay type: cell-based
# Details: single concentration (10 μM), ± SEM
# Experimental: The plates were incubated at 37° C. in a 10% CO2, 90% air humidified atmosphere for the stated length of time. At the end of the incubation, an SRB assay was performed. Briefly, cells attached to the bottom of the plate were fixed by addition of cold trichloroacetic acid (TCA, 4° C., Aldrich, Dorset, UK) on the top of the growth medium (final TCA 20% w/v). The plate was placed at 4° C. for 1 hour before being gently washed five times with tap water. It was allowed to dry in air, or aided with a hair dryer to speed up the drying process, then 50 μl of 4% w/v SRB dissolved in 1% acetic acid in water was added to each well for 30 min. At the end of the staining period, unbound SRB was removed by washing 4 times with 1% acetic acid. […]
# Various piperine derivatives of formula (1) were synthesised and tested for melanocyte (mouse melan-a) proliferant activity in-vitro. Cells we re incubated with the test compound for 4 days, as previously for the mouse cells but with 10% FBS, after which the sulphorhodamine-B (SRB) assay was performed to determnine cell number SRB uptake was measured as optical density at 550 nm. […]
# Percentage cell growth was obtained with a given compound calculated as (optical density in the presence of the compound/control optical density)×100. […]
structure (smiles),measurement,value
"O=C(/C=C/C=C/c1ccc2c(c1)OCO2)N1CCOCC1 [RV-A02, 5-E,E-piperinoyl morpholine]",Percentage cell growth (Repeated experiments),156 ± 58% and 187 ± 40% and 153 ± 19%
